Measured values as given in PubChem BioAssay AID1671190 (National Center for Advancing Translational Sciences (NCATS), 2021).
The campaign covered roughly 580,000 compounds. About 6,100 (1.1%) were called active. Inconclusive means that the source gave no clear call. Such entries were picked first, then a sample of the others. The call rests on the fitted dose curve; in most records, active means well fitted inhibition curve with a large enough effect; inconclusive means small, poorly fitted or top-dose-only effect, or another doubt; inactive means no such curve, though single readings can be large or run the other way. Where the call is inconclusive, the potency comes from a doubtful curve fit.

The chains behind the UniProt entries cited, without tags or fusion partners. Where a name states a change or a piece, a line headed by the entry shows the natural chain unless it says otherwise.
UniProt P18054: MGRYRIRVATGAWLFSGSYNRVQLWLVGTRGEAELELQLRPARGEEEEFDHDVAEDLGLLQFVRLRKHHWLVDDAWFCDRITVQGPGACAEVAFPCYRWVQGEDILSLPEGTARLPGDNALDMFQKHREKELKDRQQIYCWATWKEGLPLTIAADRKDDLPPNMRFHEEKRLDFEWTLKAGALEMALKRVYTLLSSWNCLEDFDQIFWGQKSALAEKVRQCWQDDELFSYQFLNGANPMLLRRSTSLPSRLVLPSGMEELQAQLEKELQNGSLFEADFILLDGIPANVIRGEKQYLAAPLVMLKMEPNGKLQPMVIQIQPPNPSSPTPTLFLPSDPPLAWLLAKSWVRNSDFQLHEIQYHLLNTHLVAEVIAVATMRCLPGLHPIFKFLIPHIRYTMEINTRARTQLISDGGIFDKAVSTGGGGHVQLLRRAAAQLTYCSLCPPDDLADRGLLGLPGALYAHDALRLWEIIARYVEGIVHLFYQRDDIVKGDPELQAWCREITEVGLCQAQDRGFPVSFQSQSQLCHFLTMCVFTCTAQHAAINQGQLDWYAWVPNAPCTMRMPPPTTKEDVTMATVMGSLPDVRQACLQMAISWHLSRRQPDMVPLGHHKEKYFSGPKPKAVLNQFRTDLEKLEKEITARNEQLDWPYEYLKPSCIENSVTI

These molecules were tested against Polyunsaturated fatty acid lipoxygenase ALOX12 (Homo sapiens) (UniProt P18054) (assay: Primary qHTS assay for inhibitors of human arachidonate 12S-lipoxygenase (ALOX12): Round 2). Conditions: purified 12hLO, xylenol orange hydroperoxide absorbance; series mostly up to 108 µM.
In short: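 Purified human 12hLO (150 nM final) in 25 mM Hepes, 0.01% Triton X-100, pH 7.0 was preincubated 15 min at room temperature with compound. Then 40 uM arachidonic acid was added, 30 min. Hydroperoxide was read by Fe-XO absorbance ratio 573/405 nm.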
Potency means the concentration at half of the fitted maximal effect.

Q: For `CN(Cc1ccc(OC(F)F)cc1)C(=O)c1nn(Cc2ccccc2)c(=O)c2ccccc12`, which Potency is on record?
A: inconclusive: 31.6 µM [inhibitor, single point]

Q: For `Cc1cccc(Cn2c(-c3ccc(F)cc3)nc(C)c(CCO)c2=O)c1`, which Potency is on record?
A: inconclusive: 3.16 µM [inhibitor, full curve, poor fit]

Q: `Cc1ccc(S(N)(=O)=O)cc1C(=O)N1CCN(c2ccccc2)C(=O)C1` was tested. Which Potency did it give?
A: inactive

Q: With `CN(C)c1ccc(Sc2ccc3nc(N)nc(N)c3c2)cc1` as the molecule, how does the Potency read?
A: inconclusive: 44.7 µM [inhibitor, partial curve, poor fit]

Q: Which Potency does the source give for `O=C(CSc1nncc2ccccc12)Nc1cccc(O)c1` here?
A: inconclusive: 112 µM [inhibitor, single point]

Q: With `Cc1cc(SCC(=O)Nc2cccc(S(N)(=O)=O)c2)c(C)cc1Br` as the molecule, how does the Potency read?
A: inconclusive: 0.282 µM [inhibitor, full curve, poor fit]

Q: `Cc1ccc2nc3sc(C(=O)Nc4c(C)[nH]c(=O)[nH]c4=O)c(N)c3cc2c1` was tested. Which Potency did it give?
A: inconclusive: 5.01 µM [inhibitor, full curve, poor fit]

Q: Which Potency does the source give for `CC(=O)NCCNc1ncnc2ccc(-c3ccccc3C#N)cc12` here?
A: inconclusive: 6.31 µM [inhibitor, full curve, poor fit]

Q: How did the Potency turn out when `CCN(C)Cc1cccc(CNC(=O)CCc2ncc(-c3ccccc3)o2)c1` was run?
A: inconclusive: 50.1 µM [inhibitor, partial curve, poor fit]

Q: For `C/C(=N\NC(=O)c1ccc(Br)o1)c1cc2c(cc1NC(=O)CCC(=O)O)OCO2`, which Potency is on record?
A: inconclusive: 0.199 µM [inhibitor, full curve, poor fit]

Q: For `Cc1ccc(C(=O)CSc2nnc(-c3cccnc3)n2N)cc1`, which Potency is on record?
A: inconclusive: 17.8 µM [inhibitor, full curve, poor fit]

Q: For `COc1cccc(-c2nnc(SCC(=O)Nc3ccc(OC)c(OC)c3)n2N)c1`, which Potency is on record?
A: inconclusive: 3.55 µM [inhibitor, full curve, poor fit]

Q: Which Potency does the source give for `O=C(Nc1ccc2ccccc2c1)OC1CCS(=O)(=O)C1` (stereo not given) here?
A: inconclusive: 79.4 µM [inhibitor, single point]

Q: How did the Potency turn out when `Cc1cc(/C=N/NC(N)=S)c(O)c(/C=N/NC(N)=S)c1` was run?
A: inconclusive: 56.2 µM [inhibitor, partial curve, poor fit]

Q: Which Potency does the source give for `CCOC(=O)c1sc(=S)n(CC)c1NC(=O)c1ccccc1` here?
A: inconclusive: 2.24 µM [inhibitor, full curve, poor fit]

Q: Which Potency does the source give for `Cc1noc(/C=C/c2ccco2)c1S(=O)(=O)N1CCC(C(=O)N2CCc3ccccc32)CC1` here?
A: active: 14.1 µM

Q: `N#Cc1ccccc1O` was tested. Which Potency did it give?
A: inconclusive: 6.31 µM [inhibitor, full curve]

Q: `Cc1cc(NO)nc(-c2ccc(Br)cc2)n1` was tested. Which Potency did it give?
A: inconclusive: 3.55 µM [inhibitor, full curve, poor fit]

Q: `Cc1ccc(N2C(=O)C(Cl)=C(N3CCN(C)CC3)C2=O)c(C)c1` was tested. Which Potency did it give?
A: inconclusive: 70.8 µM [inhibitor, partial curve, poor fit]

Q: How did the Potency turn out when `COc1ccc(-c2cc(Nc3ccccc3Cl)nc(C)n2)cc1` was run?
A: inconclusive: 20 µM [inhibitor, partial curve]

Q: How did the Potency turn out when `Cc1ccc(C(=O)N2CCC3(CC2)CC(N(Cc2ccccc2)C2CC2)CCO3)cc1F` (stereo not given) was run?
A: inconclusive: 14.1 µM [inhibitor, full curve, poor fit]

Q: `COc1ccc(CNC(=O)c2ccc(S(=O)(=O)NCc3ccco3)cc2)cc1` was tested. Which Potency did it give?
A: inconclusive: 31.6 µM [inhibitor, single point]

Q: How did the Potency turn out when `Cc1c(CC(=O)Nc2ccc3c(c2)OCO3)c(=O)oc2c(C)c(O)ccc12` was run?
A: inconclusive: 112 µM [inhibitor, partial curve, poor fit]

Q: `CC(=O)N1CCN(C(=O)N2CC3CC(C2)[C@H]2CCCC(=O)N2C3)CC1` (stereo not given in full) was tested. Which Potency did it give?
A: inactive

Q: Which Potency does the source give for `CS(=O)(=O)c1cnc(NCc2ncc[nH]2)nc1C1CCCNC1` (stereo not given) here?
A: inactive

Q: `COc1ccc(CCNC(=O)CNCC(c2ccccc2)N(C)C)cc1OC` (stereo not given) was tested. Which Potency did it give?
A: inconclusive: 0.178 µM [inhibitor, full curve, poor fit]

Q: Which Potency does the source give for `COC(=O)[C@]1(Cc2ccccc2)N[C@H](CN(C)C(=O)c2ccccc2)[C@@H]2C(=O)N(C)C(=O)[C@@H]21` here?
A: inconclusive: 44.7 µM [inhibitor, partial curve, poor fit]

Q: How did the Potency turn out when `COc1ccc(/C=N/n2c(-c3ccco3)nc3ccccc3c2=O)cc1` was run?
A: inactive

Q: With `CC(C)n1cnnc1SCCOc1ccccc1Cl` as the molecule, how does the Potency read?
A: inactive

Q: How did the Potency turn out when `CCc1ccc(CNCc2c(C(=O)O)n(Cc3cccc(F)c3)c3cc(OC)ccc23)cc1` was run?
A: inconclusive: 112 µM [inhibitor, partial curve, poor fit]

Q: With `COC(=O)c1ccccc1NC(=O)NCCc1c(C)nn(C)c1C` as the molecule, how does the Potency read?
A: inactive

Q: For `O=C(N[C@H](Cc1ccc(Cl)cc1)C(=O)O)OCC1c2ccccc2-c2ccccc21`, which Potency is on record?
A: inconclusive: 79.4 µM [inhibitor, partial curve, poor fit]

Q: For `Cn1ccnc1SC(=O)N1c2ccccc2Sc2ccccc21`, which Potency is on record?
A: inconclusive: 50.1 µM [inhibitor, partial curve, poor fit]

Q: How did the Potency turn out when `CN=C1SC(CC(=O)NCCc2ccc(OC)c(OC)c2)C(=O)N1C` (stereo not given) was run?
A: inconclusive: 50.1 µM [inhibitor, partial curve, poor fit]

Q: `CC1=NN(c2ccc(Cl)c(C(=O)O)c2)C(=O)/C1=C/c1ccc(-c2ccccc2[N+](=O)[O-])o1` was tested. Which Potency did it give?
A: inconclusive: 39.8 µM [inhibitor, partial curve, poor fit]

Q: With `Cc1ccc(N/N=C/c2ccc(C#N)cc2)cc1` as the molecule, how does the Potency read?
A: inconclusive: 6.31 µM [inhibitor, full curve, poor fit]

Q: For `Cc1ccc(OCC(O)CN2CCC(Cc3ccccc3)CC2)c(C)c1` (stereo not given), which Potency is on record?
A: inactive

Q: Which Potency does the source give for `Cc1nn(-c2cccc(Br)c2)c(C)c1[C@@H]1C=C[C@@H](NS(=O)(=O)c2ccccc2)C1` here?
A: inconclusive: 25.1 µM [inhibitor, full curve]

Q: With `O=C(O)c1ccc(N/N=C/C=C/c2ccc([N+](=O)[O-])o2)cc1` as the molecule, how does the Potency read?
A: inactive

Q: Which Potency does the source give for `Nc1nc(CN2CCN(C(=O)c3cccc(C(F)(F)F)c3)CC2)nc2ccccc12` here?
A: inactive
